Assay [1] has as its target T1, hABH2 (human) (UniProt Q6NS38).
T1 sequence (looked up): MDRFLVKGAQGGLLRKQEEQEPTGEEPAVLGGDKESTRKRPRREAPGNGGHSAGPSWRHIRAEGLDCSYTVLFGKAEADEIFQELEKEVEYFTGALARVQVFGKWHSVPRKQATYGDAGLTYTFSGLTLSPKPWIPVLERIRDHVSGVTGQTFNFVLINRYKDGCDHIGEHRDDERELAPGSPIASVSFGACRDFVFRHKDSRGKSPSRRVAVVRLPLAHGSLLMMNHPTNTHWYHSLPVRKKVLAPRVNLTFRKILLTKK
The assay can be described thus: co-IP with anti-EYFP magnetic beads from cells stably expressing EYFP-PCNA, anti-hABH2 western blot.

By UniProt entry, the sequences of proteins in these tests, tags left out.
UniProt P12004: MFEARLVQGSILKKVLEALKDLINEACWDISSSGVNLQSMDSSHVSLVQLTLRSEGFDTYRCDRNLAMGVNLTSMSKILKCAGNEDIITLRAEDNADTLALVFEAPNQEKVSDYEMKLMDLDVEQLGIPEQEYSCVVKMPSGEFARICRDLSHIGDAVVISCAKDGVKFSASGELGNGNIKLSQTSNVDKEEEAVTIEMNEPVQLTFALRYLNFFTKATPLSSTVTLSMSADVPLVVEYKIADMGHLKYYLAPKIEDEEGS

Assay [2] addresses T1, hABH2 (human). The assay can be described thus: co-IP with anti-PCNA magnetic beads from cells expressing only endogenous proteins, anti-hABH2 western blot.
Assay [3] has as its target T2, proliferating cell nuclear antigen (PCNA) (UniProt P12004 1-261).
T2 construct: Used both for endogenous PCNA of HeLa cell extracts (co-IP, cross-linking) and for the untagged 'PCNA' used as probe in the dot blot; also called endogenous PCNA
The assay can be described thus: dot blot: peptide spots probed with 1 ug/ml PCNA, detected with anti-PCNA PC10.

The target in assay [4] is T2, proliferating cell nuclear antigen …. The assay can be described thus: in vivo cross-linking, IP with anti-FLAG affinity gel, western blot with anti-PCNA or anti-FLAG. A general note: A western blot detects proteins with antibodies after separation by electrophoresis.
For assay [5] the target is unchanged. The assay can be described thus: co-IP with anti-GFP antibodies from stably expressing cells, anti-PCNA western blot. On the procedure: An in-house affinity purified rabbit polyclonal antibody raised against GFP protein, which also recognises EYFP and ECFP proteins, was covalently linked to protein-A paramagnetic beads (Dynal®) according to procedure from New England Biolabs® Inc (from now on called α-GFP beads). Each fraction was incubated with α-GFP beads (10 μl) during constant rotation at 4° C. over night (IP). After IP, the beads were washed 4 times with 200 μl 10 mM Tris-HCl, 50 mM KCl (pH 7.5), with 5 min incubation on ice in between. The beads were then resuspended in NuPAGE ® (Invitrogen) loading buffer and 1 mM DTT, heated, and separated on 10% or 4-12% Bis-Tris-HCl (NuPAGE®) gels and transferred to PVDF membranes (Imrnobilon®, Millipore). The membranes were blocked for 1 h in 5% low fat dry milk in PBST (PBS with 0.1% Tween® 20). The primary antibodies, α-PCNA (PC10, Santa Cruz biotechnology Inc.) and α-GFP were diluted in 1% dry milk in PBST and incubated for 1 h, followed by 1 h incubation with secondary antibodies, Polyclonal Rabbit Anti-mouse IgG/HRP and Polyclonal Swine Anti-rabbit IgG/HRP, respectively (DakoCytomation, Denmark). The membranes were treated with chemiluminescence reagent (SuperSignal® West Femto Maximum, PIERCE), and the proteins visualised in Kodak Image Station 2000R. […]

The target of assay [6] is ECFP-PCNA (UniProt P12004). The assay can be described thus: FRET (sensitised emission) in live HeLa cells.

No constants are given. Whether binding was seen depends on the method and setting. For part of these data: In cells and extracts the contact can be indirect. Some binding calls cover weakened binding; strength is not graded here. For part of these data: Tags and fused reporters may be left off the sequences shown.

EYFP-PCNA (from UniProt P12004 1-261): in assay [1], the binding result was “binds”. In the case of “proliferating cell nuclear antigen (PCNA) (from UniProt P12004 1-261)”, in assay [2], the binding entry is listed as “binds”. For the molecule MDRYLVKGAQ (peptide, UniProt Q6NS38 1-10, looked up) [hABH2 N-terminal peptide with Phe4 replaced by Tyr (dot blot)], the binding result in assay [3] is recorded as “binds”. Take MDRFLVK (peptide, human, UniProt Q6NS38 1-7, looked up, not shown: large carriers; small tags and cut ends) [hABH21-7-EYFP 3× FLAG]: the binding entry in assay [4] was “binds”. As to MDRFLVKGAQ (peptide, UniProt Q6NS38 1-10, looked up) [hABH2 N-terminal peptide (dot blot)], the binding entry in assay [3] is on record as “binds”. For the molecule MDRFLVKGAQ (peptide, human, UniProt Q6NS38 1-10, looked up, not shown: large carriers) [hABH21-10-EYFP], the binding entry in assay [5] and in assay [6] was “binds” in each case.

B1: hABH21-261-EYFP (protein, human, UniProt Q6NS38 1-261, looked up, not shown: large carriers)
chain: MDRFLVKGAQGGLLRKQEEQEPTGEEPAVLGGDKESTRKRPRREAPGNGGHSAGPSWRHIRAEGLDCSYTVLFGKAEADEIFQELEKEVEYFTGALARVQVFGKWHSVPRKQATYGDAGLTYTFSGLTLSPKPWIPVLERIRDHVSGVTGQTFNFVLINRYKDGCDHIGEHRDDERELAPGSPIASVSFGACRDFVFRHKDSRGKSPSRRVAVVRLPLAHGSLLMMNHPTNTHWYHSLPVRKKVLAPRVNLTFRKILLTKK
For the molecule B1, the binding result in assay [5] and in assay [6] was “binds” throughout.
